Test results taken from article PMC11165425.

T1: GFP-SRP19 (human) (UniProt P09132)
T1 sequence: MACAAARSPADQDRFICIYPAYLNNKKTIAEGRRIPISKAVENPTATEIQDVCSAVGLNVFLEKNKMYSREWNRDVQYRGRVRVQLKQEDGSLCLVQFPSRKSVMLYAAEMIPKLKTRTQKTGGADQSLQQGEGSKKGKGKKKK

T2: GFP-SRP72 (human) (UniProt O76094)
T2 sequence: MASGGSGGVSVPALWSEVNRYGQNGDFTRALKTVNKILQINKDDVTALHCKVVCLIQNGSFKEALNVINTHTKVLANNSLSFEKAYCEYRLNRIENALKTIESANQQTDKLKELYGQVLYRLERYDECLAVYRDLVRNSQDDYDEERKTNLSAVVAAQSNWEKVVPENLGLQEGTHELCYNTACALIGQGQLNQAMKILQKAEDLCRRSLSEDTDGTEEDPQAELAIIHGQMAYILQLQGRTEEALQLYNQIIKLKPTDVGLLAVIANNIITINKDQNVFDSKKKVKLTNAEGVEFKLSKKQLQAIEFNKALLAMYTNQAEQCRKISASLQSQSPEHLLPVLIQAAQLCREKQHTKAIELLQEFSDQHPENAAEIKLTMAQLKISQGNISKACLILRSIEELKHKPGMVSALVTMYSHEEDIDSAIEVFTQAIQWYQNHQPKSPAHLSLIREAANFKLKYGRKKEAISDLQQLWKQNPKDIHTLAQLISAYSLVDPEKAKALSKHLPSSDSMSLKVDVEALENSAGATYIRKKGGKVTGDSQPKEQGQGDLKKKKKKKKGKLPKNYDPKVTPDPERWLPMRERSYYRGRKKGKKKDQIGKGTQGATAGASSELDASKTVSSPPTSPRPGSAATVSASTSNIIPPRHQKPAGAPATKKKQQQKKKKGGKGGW


Key:
Experiment in all cases: affinity purification with mass spectrometry; IP-SILAC: GFP-Trap beads on whole-cell extracts of HEK293 Flp-In T-REx cells (GFP-SRP19, GFP-SRP9, GFP-SRP14) or U2OS Flp-In T-REx cells (GFP-SRP72) induced 3 h, against parental cells; HNT buffer (20 mM Hepes pH 7.4, 150 mM NaCl, 0.5% Triton X-100), 1.5 h at 4°C; positive: SILAC ratio above 1
GFP-SRP14 (human) = GFP-SRP14 (human) (UniProt P37108)
GFP-SRP19 (human) = molecular target: T1, GFP-SRP19 (human)
GFP-SRP72 (human) = molecular target: T2, GFP-SRP72 (human)
GFP-SRP9 (human) = GFP-SRP9 (human) (UniProt P49458)

binding (GFP-SRP14 (human))	binding (GFP-SRP19 (human))	binding (GFP-SRP72 (human))	binding (GFP-SRP9 (human))	Binder
binds	binds	binds	–	ASCC2 (protein, UniProt Q9H1I8 1-757) MPALPLDQLQITHKDPKTGKLRTSPALHPEQKADRYFVLYKPPPKDNIPALVEEYLERATFVANDLDWLLALPHDKFWCQVIFDETLQKCLDSYLRYVPRKFDEGVASAPEVVDMQKRLHRSVFLTFLRMSTHKESKDHFISPSAFGEILYNNFLFDIPKILDLCVLFGKGNSPLLQKMIGNIFTQQPSYYSDLDETLPTILQVFSNILQHCGLQGDGANTTPQKLEERGRLTPSDMPLLELKDIVLYLCDTCTTLWAFLDIFPLACQTFQKHDFCYRLASFYEAAIPEMESAIKKRRLEDSKLLGDLWQRLSHSRKKLMEIFHIILNQICLLPILESSCDNIQGFIEEFLQIFSSLLQEKRFLRDYDALFPVAEDISLLQQASSVLDETRTAYILQAVESAWEGVDRRKATDAKDPSVIEEPNGEPNGVTVTAEAVSQASSHPENSEEEECMGAAAAVGPAMCGVELDSLISQVKDLLPDLGEGFILACLEYYHYDPEQVINNILEERLAPTLSQLDRNLDREMKPDPTPLLTSRHNVFQNDEFDVFSRDSVDLSRVHKGKSTRKEENTRSLLNDKRAVAAQRQRYEQYSVVVEEVPLQPGESLPYHSVYYEDEYDDTYDGNQVGANDADSDDELISRRPFTIPQVLRTKVPREGQEEDDDDEEDDADEEAPKPDHFVQDPAVLREKAEARRMAFLAKKGYRHDSSTAVAGSPRGHGQSRETTQERRKKEANKATRANHNRRTMADRKRSKGMIPS
binds	binds	binds	–	ZNF598 (protein, UniProt Q86UK7 1-904) MAAAGGAEGRRAALEAAAAAAPERGGGSCVLCCGDLEATALGRCDHPVCYRCSTKMRVLCEQRYCAVCREELRQVVFGKKLPAFATIPIHQLQHEKKYDIYFADGKVYALYRQLLQHECPRCPELPPFSLFGDLEQHMRRQHELFCCRLCLQHLQIFTYERKWYSRKDLARHRMQGDPDDTSHRGHPLCKFCDERYLDNDELLKHLRRDHYFCHFCDSDGAQDYYSDYAYLREHFREKHFLCEEGRCSTEQFTHAFRTEIDLKAHRTACHSRSRAEARQNRHIDLQFSYAPRHSRRNEGVVGGEDYEEVDRYSRQGRVARAGTRGAQQSRRGSWRYKREEEDREVAAAVRASVAAQQQEEARRSEDQEEGGRPKKEEAAARGPEDPRGPRRSPRTQGEGPGPKETSTNGPVSQEAFSVTGPAAPGCVGVPGALPPPSPKLKDEDFPSLSASTSSSCSTAATPGPVGLALPYAIPARGRSAFQEEDFPALVSSVPKPGTAPTSLVSAWNSSSSSKKVAQPPLSAQATGSGQPTRKAGKGSRGGRKGGPPFTQEEEEDGGPALQELLSTRPTGSVSSTLGLASIQPSKVGKKKKVGSEKPGTTLPQPPPATCPPGALQAPEAPASRAEGPVAVVVNGHTEGPAPARSAPKEPPGLPRPLGSFPCPTPQEDFPALGGPCPPRMPPPPGFSAVVLLKGTPPPPPPGLVPPISKPPPGFSGLLPSPHPACVPSPATTTTTKAPRLLPAPRAYLVPENFRERNLQLIQSIRDFLQSDEARFSEFKSHSGEFRQGLISAAQYYKSCRDLLGENFQKVFNELLVLLPDTAKQQELLSAHTDFCNREKPLSTKSKKNKKSAWQATTQQAGLDCRVCPTCQQVLAHGDASSHQALHAARDDDFPSLQAIARIIT
binds	binds	binds	–	NEMF (protein, UniProt O60524 1-1076) MKSRFSTIDLRAVLAELNASLLGMRVNNVYDVDNKTYLIRLQKPDFKATLLLESGIRIHTTEFEWPKNMMPSSFAMKCRKHLKSRRLVSAKQLGVDRIVDFQFGSDEAAYHLIIELYDRGNIVLTDYEYVILNILRFRTDEADDVKFAVRERYPLDHARAAEPLLTLERLTEIVASAPKGELLKRVLNPLLPYGPALIEHCLLENGFSGNVKVDEKLETKDIEKVLVSLQKAEDYMKTTSNFSGKGYIIQKREIKPSLEADKPVEDILTYEEFHPFLFSQHSQCPYIEFESFDKAVDEFYSKIEGQKIDLKALQQEKQALKKLDNVRKDHENRLEALQQAQEIDKLKGELIEMNLQIVDRAIQVVRSALANQIDWTEIGLIVKEAQAQGDPVASAIKELKLQTNHVTMLLRNPYLLSEEEDDDVDGDVNVEKNETEPPKGKKKKQKNKQLQKPQKNKPLLVDVDLSLSAYANAKKYYDHKRYAAKKTQKTVEAAEKAFKSAEKKTKQTLKEVQTVTSIQKARKVYWFEKFLWFISSENYLIIGGRDQQQNEIIVKRYLTPGDIYVHADLHGATSCVIKNPTGEPIPPRTLTEAGTMALCYSAAWDARVITSAWWVYHHQVSKTAPTGEYLTTGSFMIRGKKNFLPPSYLMMGFSFLFKVDESCVWRHQGERKVRVQDEDMETLASCTSELISEEMEQLDGGDTSSDEDKEEHETPVEVELMTQVDQEDITLQSGRDELNEELIQEESSEDEGEYEEVRKDQDSVGEMKDEGEETLNYPDTTIDLSHLQPQRSIQKLASKEESSNSSDSKSQSRRHLSAKERREMKKKKLPSDSGDLEALEGKDKEKESTVHIETHQNTSKNVAAVQPMKRGQKSKMKKMKEKYKDQDEEDRELIMKLLGSAGSNKEEKGKKGKKGKTKDEPVKKQPQKPRGGQRVSDNIKKETPFLEVITHELQDFAVDDPHDDKEEQDLDQQGNEENLFDSLTGQPHPEDVLLFAIPICAPYTTMTNYKYKVKLTPGVQKKGKAAKTALNSFMHSKEATAREKDLFRSVKDTDLSRNIPGKVKVSAPNLLNVKRK
–	binds	binds	–	LYRIC (protein, UniProt Q86UE4 1-582) MAARSWQDELAQQAEEGSARLREMLSVGLGFLRTELGLDLGLEPKRYPGWVILVGTGALGLLLLFLLGYGWAAACAGARKKRRSPPRKREEAAAVPAAAPDDLALLKNLRSEEQKKKNRKKLSEKPKPNGRTVEVAEGEAVRTPQSVTAKQPPEIDKKNEKSKKNKKKSKSDAKAVQNSSRHDGKEVDEGAWETKISHREKRQQRKRDKVLTDSGSLDSTIPGIENTITVTTEQLTTASFPVGSKKNKGDSHLNVQVSNFKSGKGDSTLQVSSGLNENLTVNGGGWNEKSVKLSSQISAGEEKWNSVSPASAGKRKTEPSAWSQDTGDANTNGKDWGRSWSDRSIFSGIGSTAEPVSQSTTSDYQWDVSRNQPYIDDEWSGLNGLSSADPNSDWNAPAEEWGNWVDEERASLLKSQEPIPDDQKVSDDDKEKGEGALPTGKSKKKKKKKKKQGEDNSTAQDTEELEKEIREDLPVNTSKTRPKQEKAFSLKTISTSDPAEVLVKNSQPIKTLPPATSTEPSVILSKSDSDKSSSQVPPILQETDKSKSNTKQNSVPPSQTKSETSWESPKQIKKKKKARRET
binds	binds	binds	–	TRIP4 (protein, UniProt Q15650 1-581) MAVAGAVSGEPLVHWCTQQLRKTFGLDVSEEIIQYVLSIESAEEIREYVTDLLQGNEGKKGQFIEELITKWQKNDQELISDPLQQCFKKDEILDGQKSGDHLKRGRKKGRNRQEVPAFTEPDTTAEVKTPFDLAKAQENSNSVKKKTKFVNLYTREGQDRLAVLLPGRHPCDCLGQKHKLINNCLICGRIVCEQEGSGPCLFCGTLVCTHEEQDILQRDSNKSQKLLKKLMSGVENSGKVDISTKDLLPHQELRIKSGLEKAIKHKDKLLEFDRTSIRRTQVIDDESDYFASDSNQWLSKLERETLQKREEELRELRHASRLSKKVTIDFAGRKILEEENSLAEYHSRLDETIQAIANGTLNQPLTKLDRSSEEPLGVLVNPNMYQSPPQWVDHTGAASQKKAFRSSGFGLEFNSFQHQLRIQDQEFQEGFDGGWCLSVHQPWASLLVRGIKRVEGRSWYTPHRGRLWIAATAKKPSPQEVSELQATYRLLRGKDVEFPNDYPSGCLLGCVDLIDCLSQKQFKEQFPDISQESDSPFVFICKNPQEMVVKFPIKGNPKIWKLDSKIHQGAKKGLMKQNKAV
–	–	binds	binds weakly	SRP19 (protein, UniProt P09132 1-144) MACAAARSPADQDRFICIYPAYLNNKKTIAEGRRIPISKAVENPTATEIQDVCSAVGLNVFLEKNKMYSREWNRDVQYRGRVRVQLKQEDGSLCLVQFPSRKSVMLYAAEMIPKLKTRTQKTGGADQSLQQGEGSKKGKGKKKK

No constants are given. Whether binding was seen depends on the method and setting. Binding seen in cells or lysates may run through a third protein. Here binding means that the protein was enriched with, or labelled near, the bait; the list need not be complete. Where a sequence is shown, tags or fusion partners need not be part of it.
